The source gives many values for each of these; only a part stands here.
How the values were obtained:
[1] = tested on: histamine-induced nasal congestion model; assay: Histamine-induced nasal congestion model in dogs, oral administration; type: in vivo, Beagle dogs; settings: oral for 14 days
Method: A histamine-induced nasal congestion model in dogs was performed according to the standard procedure [Tiniakov R. L., Tiniakova O. P., McLeod R. L., Hey J. A., Yeates D. B. Canine model of nasal congestion and allergic rhinitis//J Appl Physiol. 2003. V.94(5). P.1821-1828]. Beagle dogs were injected in the nasal cavity with a 5% histamine solution in a volume of 250 μl/nostril. The volume of the nasal cavity of the right and left nostrils was measured using a rhinometer before and 5, 10, 15, 20, 30, 40, 50 and 60 minutes after administration of histamine. Three experiments were performed, in which Compound I was administered orally once at different times: 1) 30 minutes before administration of histamine; 2) 1 hour before administration of histamine; and 3) 6 hours before administration of histamine, and one experiment was performed, in which Compound I was administered orally once daily for 14 days, the last administration was carried out 1 hour before administration of histamine.

[2] = tested on: histamine-induced nasal congestion model; assay: Histamine-induced nasal congestion model in dogs, nasal administration of 1% solution; type: in vivo, Beagle dogs
Method: A histamine-induced nasal congestion model in dogs was performed according to the standard procedure [Tiniakov R. L., Tiniakova O. P., McLeod R. L., Hey J. A., Yeates D. B. Canine model of nasal congestion and allergic rhinitis//J Appl Physiol. 2003. V.94(5). P.1821-1828]. Beagle dogs were injected to the nasal cavity with a 5% histamine solution in a volume of 250 μl/nostril. The volume of the nasal cavity of the right and left nostrils was measured using a rhinometer before and 5, 10, 15, 20, 30, 40, 50 and 60 minutes after administration of histamine. Five experiments were carried out in which Compound I was administered intranasally once in the form of a 1% solution in a volume of 50 μl at different time periods: 1) 5 minutes after the administration of histamine; 2) right before administration of histamine; 3) 3 hours before administration of histamine; 4) […] administration of histamine; and 5) 8 hours before administration of histamine.

[3] = 0.13 mg/kg, 50 minutes after histamine
[4] = 0.13 mg/kg, 60 minutes after histamine
[5] = 0.27 mg/kg, 50 minutes after histamine
[6] = 0.27 mg/kg, 60 minutes after histamine
[7] = 0.54 mg/kg, 30 minutes after histamine
[8] = 0.54 mg/kg, 40 minutes after histamine
[9] = 0.54 mg/kg, 50 minutes after histamine
[10] = 0.54 mg/kg, 60 minutes after histamine
[11] = 1% solution intranasally 5 minutes after histamine administration, 5 minutes after histamine
[12] = 1% solution intranasally 5 minutes after histamine administration, 10 minutes after histamine
[13] = 1% solution intranasally 5 minutes after histamine administration, 15 minutes after histamine
[14] = 1% solution intranasally 5 minutes after histamine administration, 20 minutes after histamine
[15] = 1% solution intranasally 5 minutes after histamine administration, 30 minutes after histamine
[16] = 1% solution intranasally 5 minutes after histamine administration, 40 minutes after histamine
[17] = 1% solution intranasally 5 minutes after histamine administration, 50 minutes after histamine
[18] = 1% solution intranasally 5 minutes after histamine administration, 60 minutes after histamine
[19] = 1% solution intranasally 5 minutes after histamine administration, before histamine administration
[20] = 1% solution intranasally 3 hours before histamine administration, 5 minutes after histamine
[21] = 1% solution intranasally 3 hours before histamine administration, 10 minutes after histamine
[22] = 1% solution intranasally 3 hours before histamine administration, 15 minutes after histamine
[23] = 1% solution intranasally 3 hours before histamine administration, 20 minutes after histamine
[24] = 1% solution intranasally 3 hours before histamine administration, 30 minutes after histamine
[25] = 1% solution intranasally 3 hours before histamine administration, 40 minutes after histamine
[26] = 1% solution intranasally 3 hours before histamine administration, 50 minutes after histamine
[27] = 1% solution intranasally 3 hours before histamine administration, 60 minutes after histamine
[28] = 1% solution intranasally 3 hours before histamine administration, before histamine administration
[29] = 1% solution intranasally 6 hours before histamine administration, 5 minutes after histamine
[30] = 1% solution intranasally 6 hours before histamine administration, 10 minutes after histamine
[31] = 1% solution intranasally 6 hours before histamine administration, 15 minutes after histamine
[32] = 1% solution intranasally 6 hours before histamine administration, 20 minutes after histamine
[33] = 1% solution intranasally 6 hours before histamine administration, 30 minutes after histamine
[34] = 1% solution intranasally 6 hours before histamine administration, 40 minutes after histamine
[35] = 1% solution intranasally 6 hours before histamine administration, 50 minutes after histamine
[36] = 1% solution intranasally 6 hours before histamine administration, 60 minutes after histamine
[37] = 1% solution intranasally 6 hours before histamine administration, before histamine administration
[38] = 1% solution intranasally 8 hours before histamine administration, 5 minutes after histamine
[39] = 1% solution intranasally 8 hours before histamine administration, 10 minutes after histamine
[40] = 1% solution intranasally 8 hours before histamine administration, 15 minutes after histamine
[41] = 1% solution intranasally 8 hours before histamine administration, 20 minutes after histamine
[42] = 1% solution intranasally 8 hours before histamine administration, 30 minutes after histamine
[43] = 1% solution intranasally 8 hours before histamine administration, 40 minutes after histamine
[44] = 1% solution intranasally 8 hours before histamine administration, 50 minutes after histamine
[45] = 1% solution intranasally 8 hours before histamine administration, 60 minutes after histamine
[46] = 1% solution intranasally 8 hours before histamine administration, before histamine administration
[47] = 1% solution intranasally right before histamine administration, 5 minutes after histamine
[48] = 1% solution intranasally right before histamine administration, 10 minutes after histamine
[49] = 1% solution intranasally right before histamine administration, 15 minutes after histamine
[50] = 1% solution intranasally right before histamine administration, 20 minutes after histamine
[51] = 1% solution intranasally right before histamine administration, 30 minutes after histamine
[52] = 1% solution intranasally right before histamine administration, 40 minutes after histamine
[53] = 1% solution intranasally right before histamine administration, 50 minutes after histamine
[54] = 1% solution intranasally right before histamine administration, 60 minutes after histamine
[55] = 1% solution intranasally right before histamine administration, before histamine administration

## O=C(CC(=O)NCCc1cnc[nH]1)NCCc1cnc[nH]1 [Compound I, N,N′-bis(2-(1H-imidazol-5-yl)ethyl)malonamide]
[1]; [3]
  Volume of the nasal cavity, left nostril: 3.7 ± 0.2$ cm^3
  Volume of the nasal cavity, right nostril: 3.7 ± 0.2$ cm^3
[1]; [4]
  Volume of the nasal cavity, left nostril: 3.8 ± 0.1$ cm^3
  Volume of the nasal cavity, right nostril: 3.8 ± 0.1$ cm^3
[1]; [5]
  Volume of the nasal cavity, left nostril: 3.7 ± 0.1$ cm^3
  Volume of the nasal cavity, right nostril: 3.7 ± 0.1$ cm^3
[1]; [6]
  Volume of the nasal cavity, left nostril: 3.8 ± 0.1$ cm^3
  Volume of the nasal cavity, right nostril: 3.8 ± 0.1$ cm^3
[1]; [7]
  Volume of the nasal cavity, left nostril: 3.5 ± 0.1*$ cm^3
  Volume of the nasal cavity, right nostril: 3.5 ± 0.2*$ cm^3
[1]; [8]
  Volume of the nasal cavity, left nostril: 3.7 ± 0.1*$ cm^3
  Volume of the nasal cavity, right nostril: 3.7 ± 0.2*$ cm^3
[1]; [9]
  Volume of the nasal cavity, left nostril: 3.7 ± 0.1$ cm^3
  Volume of the nasal cavity, right nostril: 3.7 ± 0.2$ cm^3
[1]; [10]
  Volume of the nasal cavity, left nostril: 3.8 ± 0.1$ cm^3
  Volume of the nasal cavity, right nostril: 3.8 ± 0.1$ cm^3
[2]; [11]
  Volume of the nasal cavity, left nostril: 4.2 ± 0.4&$ cm^3
  Volume of the nasal cavity, right nostril: 4.8 ± 0.1&$ cm^3
[2]; [12]
  Volume of the nasal cavity, left nostril: 4.3 ± 0.2$ cm^3
  Volume of the nasal cavity, right nostril: 4.7 ± 0.2&$ cm^3
[2]; [13]
  Volume of the nasal cavity, left nostril: 4.6 ± 0.5 cm^3
  Volume of the nasal cavity, right nostril: 4.6 ± 0.3& cm^3
[2]; [14]
  Volume of the nasal cavity, left nostril: 4.2 ± 0.2& cm^3
  Volume of the nasal cavity, right nostril: 4.6 ± 0.4 cm^3
[2]; [15]
  Volume of the nasal cavity, left nostril: 4.6 ± 0.1& cm^3
  Volume of the nasal cavity, right nostril: 4.9 ± 0.2&$ cm^3
[2]; [16]
  Volume of the nasal cavity, left nostril: 4.5 ± 0.3& cm^3
  Volume of the nasal cavity, right nostril: 4.8 ± 0.4& cm^3
[2]; [17]
  Volume of the nasal cavity, left nostril: 4.2 ± 0.2& cm^3
  Volume of the nasal cavity, right nostril: 4.1 ± 0.4 cm^3
[2]; [18]
  Volume of the nasal cavity, left nostril: 5.2 ± 0.5& cm^3
  Volume of the nasal cavity, right nostril: 5.2 ± 0.3&$ cm^3
[2]; [19]
  Volume of the nasal cavity, left nostril: 3.9 ± 0.4 cm^3
  Volume of the nasal cavity, right nostril: 3.8 ± 0.3 cm^3
[2]; [20]
  Volume of the nasal cavity, left nostril: 2.4 ± 0.3$ cm^3
  Volume of the nasal cavity, right nostril: 2.2 ± 0.3$ cm^3
[2]; [21]
  Volume of the nasal cavity, left nostril: 2.9 ± 0.3$ cm^3
  Volume of the nasal cavity, right nostril: 3.3 ± 0.4$ cm^3
[2]; [22]
  Volume of the nasal cavity, left nostril: 2.7 ± 0.4&$ cm^3
  Volume of the nasal cavity, right nostril: 2.8 ± 0.4&$ cm^3
[2]; [23]
  Volume of the nasal cavity, left nostril: 2.2 ± 0.2&$ cm^3
  Volume of the nasal cavity, right nostril: 2.1 ± 0.2&$ cm^3
[2]; [24]
  Volume of the nasal cavity, left nostril: 2.9 ± 0.2&$ cm^3
  Volume of the nasal cavity, right nostril: 3.0 ± 0.1&$ cm^3
[2]; [25]
  Volume of the nasal cavity, left nostril: 3.6 ± 0.1&$ cm^3
  Volume of the nasal cavity, right nostril: 3.6 ± 0.1&$ cm^3
[2]; [26]
  Volume of the nasal cavity, left nostril: 2.8 ± 0.2$ cm^3
  Volume of the nasal cavity, right nostril: 2.7 ± 0.2$ cm^3
[2]; [27]
  Volume of the nasal cavity, left nostril: 5.0 ± 0.2 cm^3
  Volume of the nasal cavity, right nostril: 5.2 ± 0.3 cm^3
[2]; [28]
  Volume of the nasal cavity, left nostril: 4.8 ± 0.2 cm^3
  Volume of the nasal cavity, right nostril: 4.9 ± 0.2 cm^3
[2]; [29]
  Volume of the nasal cavity, left nostril: 3.6 ± 0.2& cm^3
  Volume of the nasal cavity, right nostril: 3.4 ± 0.2& cm^3
[2]; [30]
  Volume of the nasal cavity, left nostril: 3.8 ± 0.2&$ cm^3
  Volume of the nasal cavity, right nostril: 4 ± 0.3&$ cm^3
[2]; [31]
  Volume of the nasal cavity, left nostril: 3.9 ± 0.5& cm^3
  Volume of the nasal cavity, right nostril: 3.5 ± 0.2&$ cm^3
[2]; [32]
  Volume of the nasal cavity, left nostril: 3.7 ± 0.1&$ cm^3
  Volume of the nasal cavity, right nostril: 3.6 ± 0.2&$ cm^3
[2]; [33]
  Volume of the nasal cavity, left nostril: 4.3 ± 0.2& cm^3
  Volume of the nasal cavity, right nostril: 3.8 ± 0.1&$ cm^3
[2]; [34]
  Volume of the nasal cavity, left nostril: 3.3 ± 0.1$ cm^3
  Volume of the nasal cavity, right nostril: 3.8 ± 0.2$ cm^3
[2]; [35]
  Volume of the nasal cavity, left nostril: 3.9 ± 0.1$ cm^3
  Volume of the nasal cavity, right nostril: 4.2 ± 0.2 cm^3
[2]; [36]
  Volume of the nasal cavity, left nostril: 4.0 ± 0.0 cm^3
  Volume of the nasal cavity, right nostril: 4.5 ± 0.3$ cm^3
[2]; [37]
  Volume of the nasal cavity, left nostril: 4.5 ± 0.2 cm^3
  Volume of the nasal cavity, right nostril: 4.1 ± 0.2 cm^3
[2]; [38]
  Volume of the nasal cavity, left nostril: 3.0 ± 0.2$ cm^3
  Volume of the nasal cavity, right nostril: 2.8 ± 0.2$ cm^3
[2]; [39]
  Volume of the nasal cavity, left nostril: 2.9 ± 0.1&$ cm^3
  Volume of the nasal cavity, right nostril: 2.8 ± 0.2&$ cm^3
[2]; [40]
  Volume of the nasal cavity, left nostril: 2.0 ± 0.1&$ cm^3
  Volume of the nasal cavity, right nostril: 1.9 ± 0.2&$ cm^3
[2]; [41]
  Volume of the nasal cavity, left nostril: 1.7 ± 0.1&$ cm^3
  Volume of the nasal cavity, right nostril: 1.8 ± 0.2&$ cm^3
[2]; [42]
  Volume of the nasal cavity, left nostril: 2.7 ± 0.2&$ cm^3
  Volume of the nasal cavity, right nostril: 2.5 ± 0.2&$ cm^3
[2]; [43]
  Volume of the nasal cavity, left nostril: 3.6 ± 0.2$ cm^3
  Volume of the nasal cavity, right nostril: 3.5 ± 0.2$ cm^3
[2]; [44]
  Volume of the nasal cavity, left nostril: 3.7 ± 0.1 cm^3
  Volume of the nasal cavity, right nostril: 3.7 ± 0.2 cm^3
[2]; [45]
  Volume of the nasal cavity, left nostril: 4.1 ± 0.2 cm^3
  Volume of the nasal cavity, right nostril: 4 ± 0.2$ cm^3
[2]; [46]
  Volume of the nasal cavity, left nostril: 4.5 ± 0.1 cm^3
  Volume of the nasal cavity, right nostril: 4.1 ± 0.1 cm^3
[2]; [47]
  Volume of the nasal cavity, left nostril: 3.2 ± 0.1& cm^3
  Volume of the nasal cavity, right nostril: 3.4 ± 0.1& cm^3
[2]; [48]
  Volume of the nasal cavity, left nostril: 2.8 ± 0.1&$ cm^3
  Volume of the nasal cavity, right nostril: 2.7 ± 0.1&$ cm^3
[2]; [49]
  Volume of the nasal cavity, left nostril: 3.2 ± 0.3& cm^3
  Volume of the nasal cavity, right nostril: 3.4 ± 0.3& cm^3
[2]; [50]
  Volume of the nasal cavity, left nostril: 3.4 ± 0.2& cm^3
  Volume of the nasal cavity, right nostril: 3.3 ± 0.1& cm^3
[2]; [51]
  Volume of the nasal cavity, left nostril: 3.1 ± 0.2& cm^3
  Volume of the nasal cavity, right nostril: 3.2 ± 0.0& cm^3
[2]; [52]
  Volume of the nasal cavity, left nostril: 4.1 ± 0.3 cm^3
  Volume of the nasal cavity, right nostril: 4.0 ± 0.1& cm^3
[2]; [53]
  Volume of the nasal cavity, left nostril: 3.4 ± 0.4 cm^3
  Volume of the nasal cavity, right nostril: 3.4 ± 0.1 cm^3
[2]; [54]
  Volume of the nasal cavity, left nostril: 3.2 ± 0.2 cm^3
  Volume of the nasal cavity, right nostril: 3.6 ± 0.3 cm^3
[2]; [55]
  Volume of the nasal cavity, left nostril: 3.6 ± 0.2 cm^3
  Volume of the nasal cavity, right nostril: 3.9 ± 0.5 cm^3
